These are yes or no findings as the source states them, for the method shown. Binding seen in cells or lysates may run through a third protein. Some binding calls cover weakened binding; strength is not graded here.
Target: TMEFF1 (transmembrane protein with EGF-like and two follistatin-like domains) (human (endogenous in CAOV3, OVCAR3, SKOV3)) (UniProt Q8IYR6)
Experiment: co-IP; total protein of ovarian cancer cells (CAOV3, OVCAR3, SKOV3); 2 µg anti-TMEFF1 or anti-ST14 antibody, 4 °C 4 h, protein A/G PLUS-Agarose overnight at 4 °C; western blot for the other protein; IgG of the same species as negative control; both directions

Amino acid sequences for entries named in this document (tags omitted). Residues count along the entry.
UniProt Q8IYR6, residues 40-380: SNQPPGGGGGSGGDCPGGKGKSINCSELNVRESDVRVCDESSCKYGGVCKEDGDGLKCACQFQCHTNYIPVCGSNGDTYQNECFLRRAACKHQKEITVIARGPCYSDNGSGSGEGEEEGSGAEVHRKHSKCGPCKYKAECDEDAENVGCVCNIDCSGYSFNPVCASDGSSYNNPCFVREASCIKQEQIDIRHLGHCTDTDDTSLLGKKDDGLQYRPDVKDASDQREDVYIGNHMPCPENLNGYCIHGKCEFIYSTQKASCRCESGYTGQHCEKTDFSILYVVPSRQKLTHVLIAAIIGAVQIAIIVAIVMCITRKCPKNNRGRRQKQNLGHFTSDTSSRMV
UniProt Q9Y5Y6: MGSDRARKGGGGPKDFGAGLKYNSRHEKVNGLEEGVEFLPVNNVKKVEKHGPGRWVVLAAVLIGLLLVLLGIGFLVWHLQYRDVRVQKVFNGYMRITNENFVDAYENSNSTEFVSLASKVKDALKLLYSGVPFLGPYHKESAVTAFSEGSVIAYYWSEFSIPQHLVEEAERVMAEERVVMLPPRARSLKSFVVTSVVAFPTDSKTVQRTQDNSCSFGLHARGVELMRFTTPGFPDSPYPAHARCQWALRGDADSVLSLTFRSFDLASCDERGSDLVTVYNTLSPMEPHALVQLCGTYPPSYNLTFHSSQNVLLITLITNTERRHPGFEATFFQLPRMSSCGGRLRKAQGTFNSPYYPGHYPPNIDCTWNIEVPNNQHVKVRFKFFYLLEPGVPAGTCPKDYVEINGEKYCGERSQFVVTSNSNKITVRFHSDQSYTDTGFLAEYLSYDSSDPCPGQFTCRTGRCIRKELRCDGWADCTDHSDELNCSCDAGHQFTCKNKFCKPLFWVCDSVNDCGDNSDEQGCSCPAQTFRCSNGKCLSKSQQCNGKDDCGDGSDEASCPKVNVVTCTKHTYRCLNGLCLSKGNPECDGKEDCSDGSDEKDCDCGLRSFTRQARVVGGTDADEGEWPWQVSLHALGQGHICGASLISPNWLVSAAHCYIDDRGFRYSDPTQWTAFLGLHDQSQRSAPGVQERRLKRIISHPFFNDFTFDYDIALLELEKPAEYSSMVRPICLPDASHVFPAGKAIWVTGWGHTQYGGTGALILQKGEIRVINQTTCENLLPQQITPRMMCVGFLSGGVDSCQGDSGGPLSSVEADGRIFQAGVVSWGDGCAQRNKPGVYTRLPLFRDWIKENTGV

ST14 (ST14 transmembrane serine protease matriptase) (from UniProt Q9Y5Y6 1-855)
binding: binds

From publication PMC10929089
